# Results: the supplement of paper PMC12823440, “Inhibitors supercharge kinase turnover through native proteolytic circuits” (Nature, 2025)
# By UniProt entry, the sequences of proteins in these tests, tags left out. Where a name states a change or a piece, a line headed by the entry shows the natural chain unless it says otherwise.
# UniProt P11362, whole entry, looked up: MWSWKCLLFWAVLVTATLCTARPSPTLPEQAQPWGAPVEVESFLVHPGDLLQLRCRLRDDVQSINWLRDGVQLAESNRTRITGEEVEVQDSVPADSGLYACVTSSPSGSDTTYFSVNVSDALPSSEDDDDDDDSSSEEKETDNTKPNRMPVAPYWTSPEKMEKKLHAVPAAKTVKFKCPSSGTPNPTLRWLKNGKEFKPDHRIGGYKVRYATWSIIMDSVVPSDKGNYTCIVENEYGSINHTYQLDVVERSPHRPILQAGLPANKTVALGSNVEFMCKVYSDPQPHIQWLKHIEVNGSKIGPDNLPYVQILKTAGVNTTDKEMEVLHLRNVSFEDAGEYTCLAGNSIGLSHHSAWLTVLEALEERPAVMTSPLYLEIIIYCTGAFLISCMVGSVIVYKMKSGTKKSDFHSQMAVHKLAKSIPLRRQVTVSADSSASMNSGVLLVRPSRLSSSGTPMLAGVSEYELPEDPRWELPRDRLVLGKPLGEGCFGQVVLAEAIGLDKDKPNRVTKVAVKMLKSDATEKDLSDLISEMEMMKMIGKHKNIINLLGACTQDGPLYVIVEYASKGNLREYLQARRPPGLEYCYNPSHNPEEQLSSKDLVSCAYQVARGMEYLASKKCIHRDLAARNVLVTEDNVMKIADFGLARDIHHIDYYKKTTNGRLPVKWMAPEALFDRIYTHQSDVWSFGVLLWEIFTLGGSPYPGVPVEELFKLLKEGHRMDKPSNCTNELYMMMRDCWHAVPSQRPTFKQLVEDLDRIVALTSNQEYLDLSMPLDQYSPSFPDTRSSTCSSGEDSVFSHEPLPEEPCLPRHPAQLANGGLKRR
# UniProt P36888, whole entry: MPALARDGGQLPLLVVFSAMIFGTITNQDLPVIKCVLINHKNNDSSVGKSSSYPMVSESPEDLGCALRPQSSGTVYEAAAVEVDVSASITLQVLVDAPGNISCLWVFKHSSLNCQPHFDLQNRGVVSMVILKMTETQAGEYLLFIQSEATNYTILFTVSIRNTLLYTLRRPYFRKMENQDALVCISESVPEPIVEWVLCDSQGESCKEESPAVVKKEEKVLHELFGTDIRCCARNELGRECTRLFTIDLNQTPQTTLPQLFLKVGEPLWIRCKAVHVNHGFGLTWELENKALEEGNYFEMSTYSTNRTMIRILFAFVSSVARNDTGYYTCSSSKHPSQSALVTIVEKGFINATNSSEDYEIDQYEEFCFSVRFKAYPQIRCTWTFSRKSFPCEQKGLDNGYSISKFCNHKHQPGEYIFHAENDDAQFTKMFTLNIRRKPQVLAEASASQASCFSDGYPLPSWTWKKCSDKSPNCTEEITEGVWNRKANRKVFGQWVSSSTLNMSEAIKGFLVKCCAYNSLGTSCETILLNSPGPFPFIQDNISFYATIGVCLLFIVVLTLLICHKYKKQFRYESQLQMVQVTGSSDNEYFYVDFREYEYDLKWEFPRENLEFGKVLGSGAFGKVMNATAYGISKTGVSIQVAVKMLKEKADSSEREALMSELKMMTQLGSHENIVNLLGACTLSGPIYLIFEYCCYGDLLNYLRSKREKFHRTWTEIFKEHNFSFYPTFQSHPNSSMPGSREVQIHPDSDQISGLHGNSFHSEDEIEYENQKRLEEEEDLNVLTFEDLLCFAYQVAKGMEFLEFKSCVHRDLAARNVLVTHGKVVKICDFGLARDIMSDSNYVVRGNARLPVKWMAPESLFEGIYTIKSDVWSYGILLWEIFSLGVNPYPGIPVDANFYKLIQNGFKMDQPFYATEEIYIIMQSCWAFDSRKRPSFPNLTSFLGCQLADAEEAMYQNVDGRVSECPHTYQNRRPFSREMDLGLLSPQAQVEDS
# UniProt P06241, whole entry, looked up: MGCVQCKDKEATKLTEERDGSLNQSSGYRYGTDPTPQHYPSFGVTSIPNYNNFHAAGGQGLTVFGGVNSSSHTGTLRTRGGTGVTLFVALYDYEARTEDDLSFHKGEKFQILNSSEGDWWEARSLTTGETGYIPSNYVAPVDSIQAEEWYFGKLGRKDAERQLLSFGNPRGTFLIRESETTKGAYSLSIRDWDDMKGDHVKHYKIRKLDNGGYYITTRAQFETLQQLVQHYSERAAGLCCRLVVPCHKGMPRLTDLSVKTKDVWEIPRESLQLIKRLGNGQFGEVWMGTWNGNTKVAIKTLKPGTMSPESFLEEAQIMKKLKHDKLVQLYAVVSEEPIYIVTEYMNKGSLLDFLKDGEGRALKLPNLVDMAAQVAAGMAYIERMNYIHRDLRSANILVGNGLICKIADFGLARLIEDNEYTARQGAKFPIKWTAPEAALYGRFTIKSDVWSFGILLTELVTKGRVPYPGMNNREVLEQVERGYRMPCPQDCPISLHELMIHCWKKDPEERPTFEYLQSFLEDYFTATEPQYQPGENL
# UniProt Q9Y616: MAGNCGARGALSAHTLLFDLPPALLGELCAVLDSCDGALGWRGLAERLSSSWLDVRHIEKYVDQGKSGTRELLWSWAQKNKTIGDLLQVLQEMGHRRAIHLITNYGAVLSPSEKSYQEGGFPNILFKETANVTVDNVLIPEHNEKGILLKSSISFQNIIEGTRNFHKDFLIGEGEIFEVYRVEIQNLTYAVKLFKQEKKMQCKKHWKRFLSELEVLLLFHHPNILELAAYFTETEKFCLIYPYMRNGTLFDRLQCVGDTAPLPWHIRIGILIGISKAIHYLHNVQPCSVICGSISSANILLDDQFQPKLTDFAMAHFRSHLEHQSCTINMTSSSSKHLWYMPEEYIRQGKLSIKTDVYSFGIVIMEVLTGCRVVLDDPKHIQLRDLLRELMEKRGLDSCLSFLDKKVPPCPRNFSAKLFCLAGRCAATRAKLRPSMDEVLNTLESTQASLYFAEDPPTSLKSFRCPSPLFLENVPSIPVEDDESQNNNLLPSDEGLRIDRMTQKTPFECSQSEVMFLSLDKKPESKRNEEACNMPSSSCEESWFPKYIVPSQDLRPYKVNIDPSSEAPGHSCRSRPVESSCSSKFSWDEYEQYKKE
# UniProt P06239: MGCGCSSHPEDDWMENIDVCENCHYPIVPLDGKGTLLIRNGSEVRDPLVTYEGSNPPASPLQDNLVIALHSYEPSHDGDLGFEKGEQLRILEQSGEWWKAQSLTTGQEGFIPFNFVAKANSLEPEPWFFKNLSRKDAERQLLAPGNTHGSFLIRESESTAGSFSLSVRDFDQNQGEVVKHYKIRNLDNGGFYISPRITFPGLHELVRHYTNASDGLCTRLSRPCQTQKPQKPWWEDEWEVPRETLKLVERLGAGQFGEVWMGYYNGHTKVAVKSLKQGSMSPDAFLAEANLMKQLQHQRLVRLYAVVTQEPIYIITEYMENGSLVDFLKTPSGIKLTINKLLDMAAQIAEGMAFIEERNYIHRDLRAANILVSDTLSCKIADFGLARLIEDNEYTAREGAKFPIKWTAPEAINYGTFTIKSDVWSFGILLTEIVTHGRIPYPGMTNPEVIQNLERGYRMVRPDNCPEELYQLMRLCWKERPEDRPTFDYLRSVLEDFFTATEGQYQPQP
# UniProt P53667: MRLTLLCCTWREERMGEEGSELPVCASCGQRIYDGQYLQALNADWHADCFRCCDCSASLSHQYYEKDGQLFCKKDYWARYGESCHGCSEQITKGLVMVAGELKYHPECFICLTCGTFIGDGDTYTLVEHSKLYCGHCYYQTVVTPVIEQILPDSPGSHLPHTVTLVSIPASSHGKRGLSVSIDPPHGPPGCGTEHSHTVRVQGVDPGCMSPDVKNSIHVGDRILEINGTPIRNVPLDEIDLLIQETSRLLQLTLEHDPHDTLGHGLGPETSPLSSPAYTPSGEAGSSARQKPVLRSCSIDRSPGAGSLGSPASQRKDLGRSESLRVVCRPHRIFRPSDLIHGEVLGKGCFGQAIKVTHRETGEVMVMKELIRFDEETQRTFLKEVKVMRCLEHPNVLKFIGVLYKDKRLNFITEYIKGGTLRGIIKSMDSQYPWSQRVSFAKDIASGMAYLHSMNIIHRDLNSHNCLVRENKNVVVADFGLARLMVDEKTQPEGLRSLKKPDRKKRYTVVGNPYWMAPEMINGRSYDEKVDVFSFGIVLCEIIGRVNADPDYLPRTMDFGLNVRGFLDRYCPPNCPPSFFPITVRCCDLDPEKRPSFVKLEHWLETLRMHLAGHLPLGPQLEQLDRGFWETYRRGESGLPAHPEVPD
# UniProt Q8IWU2: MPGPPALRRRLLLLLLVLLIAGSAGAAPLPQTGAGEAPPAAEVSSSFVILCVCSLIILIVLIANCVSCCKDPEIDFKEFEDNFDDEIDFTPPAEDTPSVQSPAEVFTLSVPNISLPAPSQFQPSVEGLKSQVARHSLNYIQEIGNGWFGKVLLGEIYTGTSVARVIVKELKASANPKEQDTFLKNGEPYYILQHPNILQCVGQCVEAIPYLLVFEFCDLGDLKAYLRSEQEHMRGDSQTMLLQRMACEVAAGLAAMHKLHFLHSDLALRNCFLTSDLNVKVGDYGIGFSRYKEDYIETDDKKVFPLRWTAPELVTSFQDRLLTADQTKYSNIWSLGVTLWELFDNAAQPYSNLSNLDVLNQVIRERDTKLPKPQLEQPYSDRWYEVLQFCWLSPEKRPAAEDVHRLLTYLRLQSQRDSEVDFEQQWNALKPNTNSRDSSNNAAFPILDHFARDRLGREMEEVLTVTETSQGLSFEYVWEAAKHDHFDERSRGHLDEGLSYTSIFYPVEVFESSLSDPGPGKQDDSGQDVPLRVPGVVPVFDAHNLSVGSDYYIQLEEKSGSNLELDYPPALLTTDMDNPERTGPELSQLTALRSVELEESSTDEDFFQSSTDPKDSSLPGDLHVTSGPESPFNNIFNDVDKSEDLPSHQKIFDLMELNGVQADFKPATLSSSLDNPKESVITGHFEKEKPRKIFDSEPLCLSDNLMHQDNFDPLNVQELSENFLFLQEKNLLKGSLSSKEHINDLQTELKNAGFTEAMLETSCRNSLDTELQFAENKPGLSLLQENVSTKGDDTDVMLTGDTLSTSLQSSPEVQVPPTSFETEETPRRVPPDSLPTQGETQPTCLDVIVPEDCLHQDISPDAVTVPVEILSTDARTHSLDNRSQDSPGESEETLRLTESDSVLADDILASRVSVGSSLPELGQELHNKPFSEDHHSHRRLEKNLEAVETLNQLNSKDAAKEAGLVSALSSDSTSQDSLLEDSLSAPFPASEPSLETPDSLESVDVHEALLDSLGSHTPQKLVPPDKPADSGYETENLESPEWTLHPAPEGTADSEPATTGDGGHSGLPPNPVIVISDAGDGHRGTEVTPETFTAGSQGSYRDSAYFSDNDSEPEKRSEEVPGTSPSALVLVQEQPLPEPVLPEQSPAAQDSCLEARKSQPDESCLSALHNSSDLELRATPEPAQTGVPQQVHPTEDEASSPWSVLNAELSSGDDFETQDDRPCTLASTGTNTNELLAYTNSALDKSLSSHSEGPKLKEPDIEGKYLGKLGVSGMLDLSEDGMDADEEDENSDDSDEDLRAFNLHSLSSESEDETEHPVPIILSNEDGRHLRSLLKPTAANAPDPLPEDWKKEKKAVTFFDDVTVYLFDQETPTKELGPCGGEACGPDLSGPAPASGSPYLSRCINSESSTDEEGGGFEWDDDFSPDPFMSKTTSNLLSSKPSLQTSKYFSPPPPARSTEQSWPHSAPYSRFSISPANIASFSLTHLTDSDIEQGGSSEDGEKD
# UniProt P07948: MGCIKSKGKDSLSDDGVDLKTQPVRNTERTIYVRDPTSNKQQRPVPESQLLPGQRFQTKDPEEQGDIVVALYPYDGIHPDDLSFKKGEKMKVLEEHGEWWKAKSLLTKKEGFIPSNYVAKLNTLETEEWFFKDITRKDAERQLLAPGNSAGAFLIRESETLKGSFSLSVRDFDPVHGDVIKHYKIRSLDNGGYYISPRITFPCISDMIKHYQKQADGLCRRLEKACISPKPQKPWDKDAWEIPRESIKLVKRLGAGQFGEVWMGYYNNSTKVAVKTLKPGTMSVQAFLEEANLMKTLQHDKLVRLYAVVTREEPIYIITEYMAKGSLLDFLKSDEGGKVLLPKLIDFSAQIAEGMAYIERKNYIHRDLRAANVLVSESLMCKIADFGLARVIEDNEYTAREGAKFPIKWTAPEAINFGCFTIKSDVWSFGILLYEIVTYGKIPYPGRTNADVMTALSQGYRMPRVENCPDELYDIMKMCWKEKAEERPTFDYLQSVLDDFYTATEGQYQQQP
# Where a name gives a salt, the structure may show the parent alone. This is one part of the list. The calls rarely recur for the same compound in another form.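 In K562 cells expressing nanoluciferase-fused kinases, luminescence was recorded at 4 h intervals between 2 and 18 h, normalized as percent of control with DMSO at 100% and a positive control at 0%. A significant (2 sigma) signal drop marks a time point as decreased. The authors' rule for a hit is not shown and takes in more than the number of time points.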
# Assays:
# Test in all cases: kinase-Nluc reporter destabilization hit call (1 = scored as downregulated) (binary); higher = compound decreases kinase abundance
# Conditions in all cases: K562, 2-18 h
# [1] = molecular target: ERN1 (UniProt O75460)
# [2] = molecular target: FGFR1 (UniProt P11362)
# [3] = molecular target: FGFR2 (UniProt P21802)
# [4] = molecular target: FGFR3 (UniProt P22607)
# [5] = molecular target: FGR (UniProt P09769)
# [6] = molecular target: FLT3 (UniProt P36888)
# [7] = molecular target: FYN (UniProt P06241)
# [8] = molecular target: GSK3A (UniProt P49840)
# [9] = molecular target: HER2 (UniProt P04626)
# [10] = molecular target: INSRR (UniProt P14616)
# [11] = molecular target: IRAK3 (UniProt Q9Y616)
# [12] = molecular target: JAK1 (UniProt P23458)
# [13] = molecular target: LCK (UniProt P06239)
# [14] = molecular target: LIMK1 (UniProt P53667)
# [15] = molecular target: LIMK2 (UniProt P53671)
# [16] = molecular target: LMTK2 (UniProt Q8IWU2)
# [17] = molecular target: LYN (UniProt P07948)
# [18] = molecular target: MAP2K1 (UniProt Q02750)
# [19] = molecular target: MAP2K2 (UniProt P36507)
# [20] = molecular target: MAP4K2 (UniProt Q12851)
SMILES,kinase-Nluc reporter destabilization hit call ([1]; 2.5 µM),kinase-Nluc reporter destabilization hit call ([1]; 10 µM),kinase-Nluc reporter destabilization hit call ([2]; 2.5 µM),kinase-Nluc reporter destabilization hit call ([2]; 10 µM),kinase-Nluc reporter destabilization hit call ([3]; 2.5 µM),kinase-Nluc reporter destabilization hit call ([3]; 10 µM),kinase-Nluc reporter destabilization hit call ([4]; 2.5 µM),kinase-Nluc reporter destabilization hit call ([4]; 10 µM),kinase-Nluc reporter destabilization hit call ([5]; 2.5 µM),kinase-Nluc reporter destabilization hit call ([5]; 10 µM),kinase-Nluc reporter destabilization hit call ([6]; 2.5 µM),kinase-Nluc reporter destabilization hit call ([6]; 10 µM),kinase-Nluc reporter destabilization hit call ([7]; 2.5 µM),kinase-Nluc reporter destabilization hit call ([7]; 10 µM),kinase-Nluc reporter destabilization hit call ([8]; 2.5 µM),kinase-Nluc reporter destabilization hit call ([8]; 10 µM),kinase-Nluc reporter destabilization hit call ([9]; 2.5 µM),kinase-Nluc reporter destabilization hit call ([9]; 10 µM),kinase-Nluc reporter destabilization hit call ([10]; 2.5 µM),kinase-Nluc reporter destabilization hit call ([10]; 10 µM),kinase-Nluc reporter destabilization hit call ([11]; 2.5 µM),kinase-Nluc reporter destabilization hit call ([11]; 10 µM),kinase-Nluc reporter destabilization hit call ([12]; 2.5 µM),kinase-Nluc reporter destabilization hit call ([12]; 10 µM),kinase-Nluc reporter destabilization hit call ([13]; 2.5 µM),kinase-Nluc reporter destabilization hit call ([13]; 10 µM),kinase-Nluc reporter destabilization hit call ([14]; 2.5 µM),kinase-Nluc reporter destabilization hit call ([14]; 10 µM),kinase-Nluc reporter destabilization hit call ([15]; 2.5 µM),kinase-Nluc reporter destabilization hit call ([15]; 10 µM),kinase-Nluc reporter destabilization hit call ([16]; 2.5 µM),kinase-Nluc reporter destabilization hit call ([16]; 10 µM),kinase-Nluc reporter destabilization hit call ([17]; 2.5 µM),kinase-Nluc reporter destabilization hit call ([17]; 10 µM),kinase-Nluc reporter destabilization hit call ([18]; 2.5 µM),kinase-Nluc reporter destabilization hit call ([18]; 10 µM),kinase-Nluc reporter destabilization hit call ([19]; 2.5 µM),kinase-Nluc reporter destabilization hit call ([19]; 10 µM),kinase-Nluc reporter destabilization hit call ([20]; 2.5 µM),kinase-Nluc reporter destabilization hit call ([20]; 10 µM)
CCN(CC)Cc1ccc(OC)c(-c2cc3c(-c4ccc(C(=O)O)c(C(C)C)c4)ccnc3[nH]2)c1,inactive: 0,inactive: 0,inactive: 0,inactive: 0,inactive: 0,inactive: 0,inactive: 0,inactive: 0,inactive: 0,inactive: 0,inactive: 0,inactive: 0,inactive: 0,inactive: 0,inactive: 0,inactive: 0,inactive: 0,inactive: 0,inactive: 0,inactive: 0,inactive: 0,inactive: 0,inactive: 0,inactive: 0,inactive: 0,inactive: 0,inactive: 0,inactive: 0,inactive: 0,inactive: 0,inactive: 0,inactive: 0,inactive: 0,inactive: 0,inactive: 0,inactive: 0,inactive: 0,inactive: 0,inactive: 0,inactive: 0
CS(=O)(=O)N1CCN(Cc2cc3nc(-c4cccc5[nH]ncc45)nc(N4CCOCC4)c3s2)CC1 [Pictilisib],–,inactive: 0,–,inactive: 0,–,inactive: 0,–,inactive: 0,–,inactive: 0,–,inactive: 0,–,inactive: 0,–,inactive: 0,–,inactive: 0,–,inactive: 0,–,inactive: 0,–,inactive: 0,–,inactive: 0,–,inactive: 0,–,inactive: 0,–,inactive: 0,–,inactive: 0,–,inactive: 0,–,inactive: 0,–,inactive: 0
COc1ccnc(C[S+]([O-])c2nc3cc(-n4cccc4)ccc3[nH]2)c1C (stereo not given) [Ilaprazole],–,inactive: 0,–,inactive: 0,–,inactive: 0,–,inactive: 0,–,inactive: 0,–,inactive: 0,–,inactive: 0,–,inactive: 0,–,inactive: 0,–,inactive: 0,–,inactive: 0,–,inactive: 0,–,inactive: 0,–,inactive: 0,–,inactive: 0,–,inactive: 0,–,inactive: 0,–,inactive: 0,–,inactive: 0,–,inactive: 0
CC(C)Oc1ccc(-c2nn([C@@H](C)c3oc4ccc(F)cc4c(=O)c3-c3cccc(F)c3)c3ncnc(N)c23)cc1F [Umbralisib],inactive: 0,–,inactive: 0,–,inactive: 0,–,inactive: 0,–,inactive: 0,–,inactive: 0,–,inactive: 0,–,inactive: 0,–,inactive: 0,–,inactive: 0,–,inactive: 0,–,inactive: 0,–,inactive: 0,–,inactive: 0,–,inactive: 0,–,inactive: 0,–,inactive: 0,–,inactive: 0,–,inactive: 0,–,inactive: 0,–
Cn1ncc(Cl)c1-c1cc(C(=O)N[C@H](CN)Cc2cccc(F)c2)sc1Cl [Afuresertib (hydrochloride)],–,inactive: 0,–,inactive: 0,–,inactive: 0,–,inactive: 0,–,inactive: 0,–,inactive: 0,–,inactive: 0,–,inactive: 0,–,inactive: 0,–,inactive: 0,–,inactive: 0,–,inactive: 0,–,inactive: 0,–,inactive: 0,–,inactive: 0,–,inactive: 0,–,inactive: 0,–,inactive: 0,–,inactive: 0,–,inactive: 0
O=C1Nc2ccccc2/C1=C/c1ccccn1 [(E/Z)-GSK-3β inhibitor 1],–,inactive: 0,–,inactive: 0,–,inactive: 0,–,inactive: 0,–,inactive: 0,–,inactive: 0,–,inactive: 0,–,inactive: 0,–,inactive: 0,–,inactive: 0,–,inactive: 0,–,inactive: 0,–,inactive: 0,–,inactive: 0,–,inactive: 0,–,inactive: 0,–,inactive: 0,–,inactive: 0,–,inactive: 0,–,inactive: 0
CN(C)C(=N)NC(=N)N [Metformin],–,inactive: 0,–,inactive: 0,–,inactive: 0,–,inactive: 0,–,inactive: 0,–,inactive: 0,–,inactive: 0,–,inactive: 0,–,inactive: 0,–,inactive: 0,–,inactive: 0,–,inactive: 0,–,inactive: 0,–,inactive: 0,–,inactive: 0,–,inactive: 0,–,inactive: 0,–,inactive: 0,–,inactive: 0,–,inactive: 0
OCCn1cc(-c2cnc3nnn(Cc4ccc5ncccc5c4)c3n2)cn1,–,inactive: 0,–,inactive: 0,–,inactive: 0,–,inactive: 0,–,inactive: 0,–,inactive: 0,–,inactive: 0,–,inactive: 0,–,inactive: 0,–,inactive: 0,–,inactive: 0,–,inactive: 0,–,inactive: 0,–,inactive: 0,–,inactive: 0,–,inactive: 0,–,inactive: 0,–,inactive: 0,–,inactive: 0,–,inactive: 0
Cn1cc(-c2cnc3ccc4ccc(CS(=O)(=O)NCc5ccccn5)cc4c(=O)c3c2)cn1 [MK-8033 (hydrochloride)],–,inactive: 0,–,inactive: 0,–,inactive: 0,–,inactive: 0,–,inactive: 0,–,inactive: 0,–,inactive: 0,–,inactive: 0,–,inactive: 0,–,inactive: 0,–,inactive: 0,–,inactive: 0,–,inactive: 0,–,inactive: 0,–,inactive: 0,–,inactive: 0,–,inactive: 0,–,inactive: 0,–,inactive: 0,–,inactive: 0
CS(=O)(=O)N1CCN(Cc2cc3nc(-c4cccc5[nH]ncc45)nc(N4CCOCC4)c3s2)CC1 [Pictilisib (dimethanesulfonate)],–,inactive: 0,–,inactive: 0,–,inactive: 0,–,inactive: 0,–,inactive: 0,–,inactive: 0,–,inactive: 0,–,inactive: 0,–,inactive: 0,–,inactive: 0,–,inactive: 0,–,inactive: 0,–,inactive: 0,–,inactive: 0,–,inactive: 0,–,inactive: 0,–,inactive: 0,–,inactive: 0,–,inactive: 0,–,inactive: 0
C[C@H](CCC(=O)NCCS(=O)(=O)O)[C@H]1CC[C@H]2[C@@H]3[C@@H](O)C[C@@H]4C[C@H](O)CC[C@]4(C)[C@H]3CC[C@]12C [Tauroursodeoxycholate (dihydrate)],–,inactive: 0,–,inactive: 0,–,inactive: 0,–,inactive: 0,–,inactive: 0,–,inactive: 0,–,inactive: 0,–,inactive: 0,–,inactive: 0,–,inactive: 0,–,inactive: 0,–,inactive: 0,–,inactive: 0,–,inactive: 0,–,inactive: 0,–,inactive: 0,–,inactive: 0,–,inactive: 0,–,inactive: 0,–,inactive: 0
N=C(N)NC(=O)c1nc(Cl)c(N)nc1N [Amiloride hydrochloride dihydrate],–,inactive: 0,–,inactive: 0,–,inactive: 0,–,inactive: 0,–,inactive: 0,–,inactive: 0,–,inactive: 0,–,inactive: 0,–,inactive: 0,–,inactive: 0,–,inactive: 0,–,inactive: 0,–,inactive: 0,–,inactive: 0,–,inactive: 0,–,inactive: 0,–,inactive: 0,–,inactive: 0,–,inactive: 0,–,inactive: 0
C=CC(=O)Nc1cc(Nc2nccc(-c3cn(C4CC4)c4ccccc34)n2)c(OC)cc1N(C)CCN(C)C [Almonertinib (hydrochloride)],inactive: 0,–,inactive: 0,–,inactive: 0,–,inactive: 0,–,inactive: 0,–,inactive: 0,–,inactive: 0,–,inactive: 0,–,active: 1,–,inactive: 0,–,inactive: 0,–,inactive: 0,–,inactive: 0,–,inactive: 0,–,inactive: 0,–,inactive: 0,–,inactive: 0,–,inactive: 0,–,inactive: 0,–,inactive: 0,–
C=CC(=O)Nc1cc(Nc2nccc(-c3cn(C4CC4)c4ccccc34)n2)c(OC)cc1N(C)CCN(C)C [Almonertinib],inactive: 0,–,inactive: 0,–,inactive: 0,–,inactive: 0,–,inactive: 0,–,inactive: 0,–,inactive: 0,–,inactive: 0,–,inactive: 0,–,inactive: 0,–,inactive: 0,–,inactive: 0,–,inactive: 0,–,inactive: 0,–,inactive: 0,–,inactive: 0,–,inactive: 0,–,inactive: 0,–,inactive: 0,–,inactive: 0,–
CNC(=O)c1cc(Oc2ccc(NC(=O)Nc3ccc(Cl)c(C(F)(F)F)c3)c(F)c2)ccn1 [Regorafenib],inactive: 0,–,inactive: 0,–,inactive: 0,–,inactive: 0,–,inactive: 0,–,inactive: 0,–,inactive: 0,–,inactive: 0,–,inactive: 0,–,inactive: 0,–,inactive: 0,–,inactive: 0,–,inactive: 0,–,inactive: 0,–,inactive: 0,–,inactive: 0,–,inactive: 0,–,inactive: 0,–,inactive: 0,–,inactive: 0,–

# Quoted from the listing:
# kinase-Nluc reporter destabilization hit call ([11]; 2.5 µM), C=CC(=O)Nc1cc(Nc2nccc(-c3cn(C4CC4)c4ccccc34)n2)c(OC)cc1N(C)CCN(C)C [Almonertinib (hydrochloride)] reads inactive: 0
# kinase-Nluc reporter destabilization hit call ([12]; 10 µM), OCCn1cc(-c2cnc3nnn(Cc4ccc5ncccc5c4)c3n2)cn1 reads inactive: 0
